Test results reported in patent publication US20230194530A1, “CIRCULATING CARDIOVASCULAR BIOMARKERS AND VASCULAR STABILIZING THERAPY” (priority 2021, published 2023).
For at least one compound, name, drawing or mass did not settle the structure.

System: VE-cadherin and Claudin-5 in pHUVECs
Experiment: Immunofluorescence of VE-cadherin and Claudin-5 junctional staining in pHUVECs treated with COVID-19 patient plasma
Assay type: cell-based, human
Conditions: co-treatment with moderate or severe COVID-19 plasma, six hours

C[C@@H]1C[C@H]2[C@@H]3CCC4=CC(=O)C=C[C@]4(C)[C@@]3(F)[C@@H](O)C[C@]2(C)[C@@]1(O)C(=O)CO [dexamethasone]
disruption of the EC barrier, as examined through junctional protein expression (VE-cadherin, Claudin-5): could maintain junctional protein expression
